Experimental data from PubChem BioAssay AID1487 (National Center for Advancing Translational Sciences (NCATS), 2009).
Some of the results follow. These are further read-outs of the screen, such as a control signal, another cell line or another target. No call is given for them. The list favours compounds with an active or inconclusive main result. The note in brackets gives the kind of curve behind each potency; many fits are weak.

Assay: qHTS Assay for Modulators of Lamin A Splicing
Settings: HeLa LMNA splicing GFP/RFP minigene ratio, 48 h
Summary of the method: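 Read-out is the ratio of GFP to DsRed2 object intensity, acquired by 488 nm laser-scanning cytometry on HeLa lamin A-EGFP minigene reporter cells. Compound incubation 48 hrs at 37 °C in Opti-MEM with 2% FBS; DMSO 0.5% final.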

[1] = measured here: GFP splicing reporter channel
[2] = measured here: RFP viability control channel

Compound | AC50 [1] | AC50 [2]
COc1ccc(-c2csc3ncn(-c4ccccc4OC)c(=O)c23)cc1OC | 17.8 µM [falling, single point] | 12.6 µM [falling, single point]
COc1ccc(OC)c(NS(=O)(=O)c2ccc3c(c2)C(C)(C)C(=O)N3C)c1 | 6.31 µM [rising, single point] | –
NC(=O)C1CCN(C(=O)c2ccc(NC(=O)c3nsc4ccccc34)cc2)CC1 | – | 5.62 µM [falling, single point]
COc1ccccc1-n1c(SCC(=O)c2ccc(O)cc2O)nc2cc([N+](=O)[O-])ccc21 | – | 14.1 µM [rising, partial curve]
O=C(Nc1ccc(CSc2ccccc2)cc1)c1ccc(CN2CCOCC2)cc1 | 0.2 µM [rising, full curve, poor fit] | 1 µM [rising, full curve]
Cn1c(-c2cc3c(C(F)(F)F)nn(C)c3s2)n[nH]c1=S | – | 2 µM [rising, full curve, poor fit]
Cc1cccc(NC(=O)C2CCCN(S(=O)(=O)c3c(C)nn(C)c3C)C2)n1 (configuration not stated) | – | 11.2 µM [rising, partial curve]
Cn1c(CCN2CCOCC2)nc2cc(NC(=O)COc3ccc(Cl)cc3)ccc21 | – | 20 µM [rising, single point]
Cc1cc(C)nc(SC(C)CNS(=O)(=O)c2ccccc2)n1 (configuration not stated) | – | 35.5 µM [rising, partial curve, poor fit]
C(=C1/CCCC2=C1Nc1ncnn1C2c1ccccc1)/c1ccccc1 (configuration not stated) | 3.16 µM [falling, partial curve] | 5.62 µM [falling, single point]
COC(=O)c1cccc(Cn2c(Cl)c(/C=N/Nc3ccccc3C)sc2=O)c1 | 15.8 µM [rising, single point] | 15.8 µM [rising, single point]
O=C(c1ccccc1)N1CCN(CCc2ccncc2)CC1 | 3.55 µM [rising, full curve] | –
OC[C@H]1O[C@@H]2O[C@H]3[C@H](O)[C@@H](O)[C@@H](O[C@H]4[C@H](O)[C@@H](O)[C@@H](O[C@H]5[C@H](O)[C@@H](O)[C@@H](O[C@H]6[C@H](O)[C@@H](O)[C@@H](O[C@H]7[C@H](O)[C@@H](O)[C@@H](O[C@H]1[C@H](O)[C@H]2O)O[C@@H]7CO)O[C@@H]6CO)O[C@@H]5CO)O[C@@H]4CO)O[C@@H]3CO | – | 1.26 µM [falling, partial curve, poor fit]
COC(=O)c1sccc1N/N=C/c1ccc(OC)c(OC)c1OC | – | 35.5 µM [rising, single point]
CCN(CC)S(=O)(=O)c1ccc(O)c(NC(=O)c2ccc(N3CCOCC3)c([N+](=O)[O-])c2)c1 | 8.91 µM [rising, partial curve] | 7.08 µM [rising, partial curve]
O=C(Nc1nnc(S(=O)(=O)N2CCCc3ccccc32)s1)c1cccc(Cl)c1 | 0.00355 µM [rising, full curve, poor fit] | –
COc1cc(C(=O)NCC(=O)OCc2cc(=O)oc3c(C)c(C)ccc23)cc(OC)c1OC | – | 0.631 µM [falling, full curve, poor fit]
COc1ccc(-c2[nH]ncc2CN2CCC(OCc3ccccc3)CC2)c(F)c1 | 12.6 µM [falling, single point] | 22.4 µM [falling, single point]
CCc1cccc(C)c1NS(=O)(=O)c1c(C(=O)N2CCC(C)CC2)c(C)n(C)c1C | 5.62 µM [rising, single point] | 0.398 µM [falling, single point]
CN(c1c[nH]c(=O)[nH]c1=O)C1CCCCC1 | 31.6 µM [rising, single point] | –
COc1ccc(OC(C)C(=O)Nc2ccccc2F)cc1 (configuration not stated) | 0.631 µM [rising, full curve] | –
COc1cc(/C=N/N=C(N)N)ccc1OCc1ccccc1Cl | – | 0.00447 µM [rising, full curve]
C/C(=N\NC(=O)c1[nH]c2c([N+](=O)[O-])cc(C)cc2c1-c1ccccc1)c1cccnc1 | 3.55 µM [falling, single point] | –
O=C(Cc1cccs1)NCCCc1ccccc1 | 35.5 µM [falling, single point] | –
N#Cc1cnn2c(N)c(-c3ccc(Cl)cc3)cnc12 | 0.0708 µM [rising, full curve, poor fit] | –
CCOc1ccc2[nH]c(=O)c(C(c3nnnn3Cc3ccco3)N3CCN(C)CC3)cc2c1 (configuration not stated) | 6.31 µM [falling, single point] | 17.8 µM [falling, partial curve, poor fit]
Cc1ccc(Oc2nc(CN3CCOCC3)nc3sc4c(c23)CCC(C)C4)cc1 (configuration not stated) | – | 2 µM [rising, partial curve, poor fit]

Whole records, quoted from the list.
`COc1ccc(-c2[nH]ncc2CN2CCC(OCc3ccccc3)CC2)c(F)c1` in the list: AC50 [1]: 12.6 µM [falling, single point]; AC50 [2]: 22.4 µM [falling, single point]
`CCc1cccc(C)c1NS(=O)(=O)c1c(C(=O)N2CCC(C)CC2)c(C)n(C)c1C` in the list: AC50 [1]: 5.62 µM [rising, single point]; AC50 [2]: 0.398 µM [falling, single point]
`COc1ccc(-c2csc3ncn(-c4ccccc4OC)c(=O)c23)cc1OC` in the list: AC50 [1]: 17.8 µM [falling, single point]; AC50 [2]: 12.6 µM [falling, single point]

Later entries

Compound | AC50 [1] | AC50 [2]
CCc1ccc(NC(=O)N2CCOc3ccc(Cl)cc32)cc1 | 0.708 µM [rising, full curve, poor fit] | –
COc1cc(C2C(C#N)=C(N)Oc3c2ccc2ccccc32)ccc1OCC(=O)Nc1ccccc1C (configuration not stated) | – | 35.5 µM [falling, single point]
Cc1[nH]nc2c1C(c1ccc(-c3ccc(Cl)cc3)o1)C(C#N)=C(N)O2 (configuration not stated) | 7.08 µM [rising, partial curve, poor fit] | 11.2 µM [rising, partial curve]
Nc1ccc(NC(=O)c2ccc(C(=O)Nc3ccc(N)cc3)cc2)cc1 | 2 µM [falling, partial curve, poor fit] | 35.5 µM [falling, single point]
Nc1nnc(SCCCC(=O)c2ccc(Br)cc2)s1 | – | 0.141 µM [rising, full curve, poor fit]
CCCCN(CC)C(=O)CSc1nc2n[nH]c(C)c2c(=N)n1-c1cccc(Cl)c1 | 0.00447 µM [falling, full curve, poor fit] | 0.00631 µM [falling, full curve]
CC(C)(C)c1ccc(/C=C/C(=O)c2ccc(NC3=NCCCS3)cc2)cc1 | 11.2 µM [falling, partial curve, poor fit] | 35.5 µM [falling, single point]
Cc1ccc(Cl)cc1N1CCN(S(=O)(=O)c2ccc3c(c2)oc(=O)n3C)CC1 | 3.55 µM [rising, partial curve, poor fit] | 14.1 µM [rising, partial curve]
O=C(CNC(=O)c1ccco1)NCC(=O)OCc1ccccc1Br | 0.398 µM [falling, single point] | –
O=C(NCc1ccc2c(c1)OCO2)c1ccc(CSCc2cccc(Cl)c2)o1 | 35.5 µM [rising, single point] | 22.4 µM [rising, single point]
CN(c1ccc(C(=O)N2CCN(c3ccc(F)cc3)CC2)cc1)S(C)(=O)=O | – | 3.16 µM [rising, single point]
CCN(CC(=O)NC(C)C)C(=O)[C@@H](NC(=O)c1ccco1)C(C)C | – | 3.98 µM [rising, full curve, poor fit]
CC(=O)Nc1ccc(/C=N/N2CCCCC2)cc1 | – | 0.0794 µM [falling, full curve, poor fit]
O=C(NC(=S)Nc1ccccn1)c1ccco1 | – | 7.94 µM [rising, partial curve, poor fit]
Nc1nc(SCC(=O)NCCc2ccccc2)[nH]c(=O)c1-c1ccccc1 | – | 0.178 µM [falling, full curve, poor fit]
O=C(Nc1ccn(Cc2c(F)c(F)cc(F)c2F)n1)c1ccc(COc2ccc(Cl)cc2Cl)o1 | 14.1 µM [rising, partial curve, poor fit] | 15.8 µM [rising, single point]
COC(=O)c1[nH]nc2c1C(=O)N(C1CCCCC1)C2=O | 14.1 µM [rising, single point] | –
Cc1ccccc1-c1cc2c(nn1)-c1ccccc1C2=O | 35.5 µM [falling, single point] | 35.5 µM [falling, single point]
C/C(=N/NC(=O)c1ccco1)c1ccc(NC(=O)c2ccc(F)cc2)cc1 | 35.5 µM [rising, single point] | –
CCc1c(C)nc2ncnn2c1N1CCCC(C(=O)NCCc2ccc(OC)cc2)C1 (configuration not stated) | – | 17.8 µM [rising, single point]
COc1cc(/C=C(\NC(C)=O)C(=O)O)cc(OC)c1OC | 3.55 µM [falling, single point] | 0.00447 µM [falling, full curve, poor fit]
COc1ccc(C(=O)Nc2ccccc2Cc2ccccc2)c(OC)c1 | 35.5 µM [rising, single point] | –
Cc1c(N=C2NN=C(c3c[nH]c4ccccc34)CS2)c(=O)n(-c2ccccc2)n1C | 35.5 µM [falling, single point] | –
CCC(c1nnnn1Cc1ccc2c(c1)OCO2)N1CCN(c2ccc(OC)cc2)CC1 (configuration not stated) | 15.8 µM [rising, single point] | 14.1 µM [rising, single point]
O=C(Nc1ccc(S(=O)(=O)N2CCCC2)cc1)c1ccc(CN2CCc3ccccc3C2)cc1 | 0.708 µM [rising, full curve, poor fit] | 0.562 µM [rising, full curve]
O=C(Nc1nc2c(s1)CCCC2)C1COc2ccccc2O1 (configuration not stated) | – | 14.1 µM [rising, single point]
